The supplement of paper PMC10849652
The other results are listed elsewhere or left out.

Chains of the proteins cited; added tags and fusions are not shown. Lines headed by an entry give the natural chain unless they say otherwise; changes in a name come on top.
UniProt P49748: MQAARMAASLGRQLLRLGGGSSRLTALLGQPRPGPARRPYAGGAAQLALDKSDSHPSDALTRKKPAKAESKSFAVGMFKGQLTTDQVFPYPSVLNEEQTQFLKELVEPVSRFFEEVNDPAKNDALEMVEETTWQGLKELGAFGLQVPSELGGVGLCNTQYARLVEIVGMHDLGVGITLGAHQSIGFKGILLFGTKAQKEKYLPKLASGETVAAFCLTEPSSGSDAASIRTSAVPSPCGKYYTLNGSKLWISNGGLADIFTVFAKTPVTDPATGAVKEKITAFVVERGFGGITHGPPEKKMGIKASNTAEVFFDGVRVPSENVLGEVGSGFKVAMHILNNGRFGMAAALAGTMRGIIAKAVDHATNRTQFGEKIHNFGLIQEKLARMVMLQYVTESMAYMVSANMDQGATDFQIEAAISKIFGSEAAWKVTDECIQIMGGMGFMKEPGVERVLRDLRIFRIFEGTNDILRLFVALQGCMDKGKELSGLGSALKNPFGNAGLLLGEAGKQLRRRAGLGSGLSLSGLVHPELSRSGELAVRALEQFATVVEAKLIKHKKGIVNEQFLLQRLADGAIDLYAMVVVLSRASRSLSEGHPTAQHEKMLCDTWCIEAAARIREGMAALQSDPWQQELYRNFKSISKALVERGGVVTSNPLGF
UniProt P33121: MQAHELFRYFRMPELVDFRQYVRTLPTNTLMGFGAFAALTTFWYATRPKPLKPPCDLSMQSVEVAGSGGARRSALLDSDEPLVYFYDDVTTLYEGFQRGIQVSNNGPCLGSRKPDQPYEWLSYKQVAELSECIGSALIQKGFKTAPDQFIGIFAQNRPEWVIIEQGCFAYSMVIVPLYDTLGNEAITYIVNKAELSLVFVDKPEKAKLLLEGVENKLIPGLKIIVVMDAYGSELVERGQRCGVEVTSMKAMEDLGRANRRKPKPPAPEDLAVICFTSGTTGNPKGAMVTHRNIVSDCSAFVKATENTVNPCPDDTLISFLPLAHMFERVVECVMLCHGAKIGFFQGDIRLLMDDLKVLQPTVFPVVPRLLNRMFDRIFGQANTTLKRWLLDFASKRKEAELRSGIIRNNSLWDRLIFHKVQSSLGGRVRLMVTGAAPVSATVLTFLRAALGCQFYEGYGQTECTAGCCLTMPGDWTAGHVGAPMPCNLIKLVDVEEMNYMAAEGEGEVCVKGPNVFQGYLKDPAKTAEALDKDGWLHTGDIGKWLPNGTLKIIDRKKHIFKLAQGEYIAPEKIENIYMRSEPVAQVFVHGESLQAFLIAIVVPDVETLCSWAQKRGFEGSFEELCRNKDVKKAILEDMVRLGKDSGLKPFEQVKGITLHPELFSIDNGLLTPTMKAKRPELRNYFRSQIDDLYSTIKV
UniProt Q04771: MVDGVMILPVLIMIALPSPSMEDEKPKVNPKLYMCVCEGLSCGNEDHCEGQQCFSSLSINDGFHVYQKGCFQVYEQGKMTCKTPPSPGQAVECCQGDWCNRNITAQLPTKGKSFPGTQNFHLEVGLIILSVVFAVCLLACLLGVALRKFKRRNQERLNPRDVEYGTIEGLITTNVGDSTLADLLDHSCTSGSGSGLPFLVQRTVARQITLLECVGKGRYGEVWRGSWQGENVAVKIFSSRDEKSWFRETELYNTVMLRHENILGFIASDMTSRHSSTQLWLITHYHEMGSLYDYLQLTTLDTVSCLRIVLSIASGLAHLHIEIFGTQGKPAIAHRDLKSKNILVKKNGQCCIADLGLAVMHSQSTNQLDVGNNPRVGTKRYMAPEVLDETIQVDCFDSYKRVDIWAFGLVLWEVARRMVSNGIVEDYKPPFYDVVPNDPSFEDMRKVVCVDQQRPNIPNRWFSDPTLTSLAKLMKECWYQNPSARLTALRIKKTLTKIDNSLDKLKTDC
UniProt P24666: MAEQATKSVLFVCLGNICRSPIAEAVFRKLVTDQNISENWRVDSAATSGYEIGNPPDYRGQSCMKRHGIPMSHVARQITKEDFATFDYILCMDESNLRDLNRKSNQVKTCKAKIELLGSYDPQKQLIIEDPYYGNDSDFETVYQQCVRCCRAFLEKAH
UniProt Q9BTE6: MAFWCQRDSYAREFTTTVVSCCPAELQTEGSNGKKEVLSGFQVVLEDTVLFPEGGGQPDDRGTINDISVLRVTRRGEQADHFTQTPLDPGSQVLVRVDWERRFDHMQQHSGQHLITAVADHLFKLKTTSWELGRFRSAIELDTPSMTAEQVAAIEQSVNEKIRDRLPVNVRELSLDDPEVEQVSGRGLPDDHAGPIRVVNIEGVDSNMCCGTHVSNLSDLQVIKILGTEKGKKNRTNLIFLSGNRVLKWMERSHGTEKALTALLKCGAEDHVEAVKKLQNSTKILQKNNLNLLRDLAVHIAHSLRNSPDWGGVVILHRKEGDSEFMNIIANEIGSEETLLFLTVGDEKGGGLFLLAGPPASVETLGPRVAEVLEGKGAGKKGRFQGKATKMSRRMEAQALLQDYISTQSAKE
UniProt Q8NFV4: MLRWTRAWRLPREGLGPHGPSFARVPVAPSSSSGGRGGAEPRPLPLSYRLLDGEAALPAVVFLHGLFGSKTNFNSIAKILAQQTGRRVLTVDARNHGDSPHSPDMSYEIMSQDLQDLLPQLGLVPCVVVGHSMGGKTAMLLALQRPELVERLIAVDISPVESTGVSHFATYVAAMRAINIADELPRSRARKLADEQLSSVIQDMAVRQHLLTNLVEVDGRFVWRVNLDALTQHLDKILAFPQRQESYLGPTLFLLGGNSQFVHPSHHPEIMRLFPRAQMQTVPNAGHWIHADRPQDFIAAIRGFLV
UniProt P14621: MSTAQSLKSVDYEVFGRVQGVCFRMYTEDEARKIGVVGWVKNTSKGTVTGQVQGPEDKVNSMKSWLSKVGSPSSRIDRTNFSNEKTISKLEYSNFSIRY
UniProt Q2M2I8: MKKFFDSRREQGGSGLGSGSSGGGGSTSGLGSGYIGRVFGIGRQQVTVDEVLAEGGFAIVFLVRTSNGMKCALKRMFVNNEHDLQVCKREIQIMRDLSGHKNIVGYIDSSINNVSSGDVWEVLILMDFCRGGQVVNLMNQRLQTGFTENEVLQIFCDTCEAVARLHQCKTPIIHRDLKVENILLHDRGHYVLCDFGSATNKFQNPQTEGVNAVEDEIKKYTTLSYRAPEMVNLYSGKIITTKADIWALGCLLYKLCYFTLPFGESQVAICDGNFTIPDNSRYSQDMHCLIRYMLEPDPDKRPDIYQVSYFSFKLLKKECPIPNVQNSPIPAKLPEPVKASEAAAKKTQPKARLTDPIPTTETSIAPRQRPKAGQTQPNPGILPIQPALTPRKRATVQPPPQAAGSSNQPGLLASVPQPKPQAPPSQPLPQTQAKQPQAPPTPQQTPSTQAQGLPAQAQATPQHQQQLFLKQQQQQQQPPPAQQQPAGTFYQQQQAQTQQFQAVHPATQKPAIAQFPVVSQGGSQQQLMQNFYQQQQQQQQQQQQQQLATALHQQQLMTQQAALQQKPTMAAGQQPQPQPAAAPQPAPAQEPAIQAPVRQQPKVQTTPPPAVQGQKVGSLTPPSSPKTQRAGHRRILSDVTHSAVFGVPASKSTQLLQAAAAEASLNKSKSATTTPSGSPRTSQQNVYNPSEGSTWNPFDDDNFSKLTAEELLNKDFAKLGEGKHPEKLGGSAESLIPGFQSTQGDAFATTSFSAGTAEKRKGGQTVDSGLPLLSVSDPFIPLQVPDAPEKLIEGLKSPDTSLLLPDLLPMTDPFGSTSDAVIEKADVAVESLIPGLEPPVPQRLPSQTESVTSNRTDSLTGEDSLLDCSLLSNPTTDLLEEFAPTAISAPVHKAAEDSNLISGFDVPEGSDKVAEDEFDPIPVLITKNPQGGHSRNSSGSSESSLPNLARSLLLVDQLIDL
UniProt Q5JTZ9, whole entry, looked up: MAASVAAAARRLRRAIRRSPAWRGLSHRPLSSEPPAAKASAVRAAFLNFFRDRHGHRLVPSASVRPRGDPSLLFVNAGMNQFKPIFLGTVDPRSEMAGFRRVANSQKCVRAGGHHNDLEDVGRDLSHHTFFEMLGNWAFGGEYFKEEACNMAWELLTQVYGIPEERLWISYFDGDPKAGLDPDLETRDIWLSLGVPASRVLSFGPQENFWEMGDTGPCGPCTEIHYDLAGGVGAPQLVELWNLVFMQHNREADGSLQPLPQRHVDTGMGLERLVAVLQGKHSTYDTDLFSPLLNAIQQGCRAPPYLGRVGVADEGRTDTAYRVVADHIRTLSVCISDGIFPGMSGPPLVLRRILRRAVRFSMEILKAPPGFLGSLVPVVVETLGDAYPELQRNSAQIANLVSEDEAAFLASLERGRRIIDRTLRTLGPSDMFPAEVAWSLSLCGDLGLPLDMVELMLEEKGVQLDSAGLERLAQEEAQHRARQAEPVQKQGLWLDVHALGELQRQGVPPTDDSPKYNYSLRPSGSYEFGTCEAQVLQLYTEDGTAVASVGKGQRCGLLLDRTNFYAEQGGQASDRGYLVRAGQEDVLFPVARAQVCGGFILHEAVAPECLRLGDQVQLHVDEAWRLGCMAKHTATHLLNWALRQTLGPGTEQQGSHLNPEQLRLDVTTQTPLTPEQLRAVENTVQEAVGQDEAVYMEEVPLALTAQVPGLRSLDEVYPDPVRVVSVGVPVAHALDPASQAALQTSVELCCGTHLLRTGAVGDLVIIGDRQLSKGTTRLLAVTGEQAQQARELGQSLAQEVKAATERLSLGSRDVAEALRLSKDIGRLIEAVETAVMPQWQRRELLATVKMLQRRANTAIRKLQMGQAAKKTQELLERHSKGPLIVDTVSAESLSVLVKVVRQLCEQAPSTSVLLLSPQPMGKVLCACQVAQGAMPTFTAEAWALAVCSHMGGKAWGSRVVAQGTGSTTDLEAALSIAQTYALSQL
UniProt Q9ULC5: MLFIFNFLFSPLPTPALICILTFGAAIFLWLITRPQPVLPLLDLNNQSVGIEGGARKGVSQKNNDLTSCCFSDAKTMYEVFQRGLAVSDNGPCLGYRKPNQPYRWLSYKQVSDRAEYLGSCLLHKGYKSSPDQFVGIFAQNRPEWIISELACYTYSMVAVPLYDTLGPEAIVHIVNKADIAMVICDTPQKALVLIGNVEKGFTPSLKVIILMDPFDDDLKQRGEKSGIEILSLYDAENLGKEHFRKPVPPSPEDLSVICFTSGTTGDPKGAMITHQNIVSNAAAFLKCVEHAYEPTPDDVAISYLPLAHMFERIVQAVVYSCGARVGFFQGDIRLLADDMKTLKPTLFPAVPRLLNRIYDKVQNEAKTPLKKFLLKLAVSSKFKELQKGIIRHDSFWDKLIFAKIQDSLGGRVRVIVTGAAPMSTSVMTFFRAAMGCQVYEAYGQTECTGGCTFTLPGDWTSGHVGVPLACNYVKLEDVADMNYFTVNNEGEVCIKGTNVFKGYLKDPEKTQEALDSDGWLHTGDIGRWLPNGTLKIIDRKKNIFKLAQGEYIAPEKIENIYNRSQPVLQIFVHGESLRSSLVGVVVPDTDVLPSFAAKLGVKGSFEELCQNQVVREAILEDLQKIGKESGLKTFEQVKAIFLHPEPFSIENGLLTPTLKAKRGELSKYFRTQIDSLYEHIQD
UniProt P00519, whole entry, looked up: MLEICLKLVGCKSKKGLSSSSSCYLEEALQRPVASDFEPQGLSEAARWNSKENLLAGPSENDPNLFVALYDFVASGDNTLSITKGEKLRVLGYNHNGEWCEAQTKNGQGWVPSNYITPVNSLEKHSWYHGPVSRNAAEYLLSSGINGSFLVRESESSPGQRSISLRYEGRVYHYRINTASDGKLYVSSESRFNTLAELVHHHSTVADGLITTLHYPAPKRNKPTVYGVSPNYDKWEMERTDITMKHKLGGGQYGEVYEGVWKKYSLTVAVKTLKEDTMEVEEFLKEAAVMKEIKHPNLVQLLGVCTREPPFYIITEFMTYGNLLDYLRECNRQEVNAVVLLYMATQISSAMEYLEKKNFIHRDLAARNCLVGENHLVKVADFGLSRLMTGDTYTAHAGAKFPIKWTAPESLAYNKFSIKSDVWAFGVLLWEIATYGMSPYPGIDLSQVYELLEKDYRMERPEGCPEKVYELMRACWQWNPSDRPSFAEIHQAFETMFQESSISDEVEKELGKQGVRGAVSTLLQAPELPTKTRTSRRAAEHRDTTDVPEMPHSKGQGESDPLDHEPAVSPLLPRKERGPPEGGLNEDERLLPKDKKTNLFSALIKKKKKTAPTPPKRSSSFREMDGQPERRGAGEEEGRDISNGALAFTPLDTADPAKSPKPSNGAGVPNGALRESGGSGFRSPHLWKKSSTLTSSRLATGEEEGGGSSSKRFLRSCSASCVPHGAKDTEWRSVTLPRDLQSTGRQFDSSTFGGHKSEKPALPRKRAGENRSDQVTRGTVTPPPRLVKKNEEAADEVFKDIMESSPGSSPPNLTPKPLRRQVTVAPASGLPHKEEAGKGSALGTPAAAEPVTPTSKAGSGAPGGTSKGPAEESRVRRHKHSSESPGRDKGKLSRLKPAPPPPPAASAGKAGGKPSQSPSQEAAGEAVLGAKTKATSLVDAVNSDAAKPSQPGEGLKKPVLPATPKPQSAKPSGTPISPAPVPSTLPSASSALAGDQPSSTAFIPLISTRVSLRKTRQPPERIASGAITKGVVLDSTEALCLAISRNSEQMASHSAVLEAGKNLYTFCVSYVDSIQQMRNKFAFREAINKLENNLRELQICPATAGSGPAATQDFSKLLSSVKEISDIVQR

compound: CNC(=O)C1=CC=CC=C1NC2=NC(=NC=C2Cl)NC3=C(C=C(C=C3)N4CCOCC4)OC; experiment: log2 fold change, soluble protein after heating vs DMSO (PISA); higher = thermal stabilisation; K562 cells, 10 uM, 30 min; active = over 0.2 and 3.5 SD of the protein, either way, in both replicates (recomputed)
Method in brief: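 K562 cells (2×10^6 cells/mL) were treated with 10 μM compound for 30 min, and aliquots were heated for 3 min over 48°C-58°C. Pooled aliquots were extracted in PBS with 0.5% NP-40 at 4°C, and the supernatant after 21,000xg for 90 min was measured by TMTpro 16plex LC-MS/MS with channel sums equalised. Reported thermal stability, relative to control samples and from duplicates, is a log2 fold change.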

log2 fold change, inactive:
ACSF3 (UniProt Q4G176) 0.099
AAMP (UniProt Q13685) 0.022
ACADVL isoform 3 (UniProt P49748) -0.022
ACSL1 (UniProt P33121) -0.003
ACOX3 (UniProt O15254) -0.034
ABCB4 (UniProt P21439) -0.115
ABCA3 (UniProt Q99758) 0.065
ACVR1 (UniProt Q04771) 0
AAGAB (UniProt Q6PD74) 0.112
ACP2 (UniProt P11117) -0.006
ACACB (UniProt O00763) -0.083
AAR2 (UniProt Q9Y312) -0.049
ACP1 (UniProt P24666) -0.1
ACO2 (UniProt Q99798) 0.016
ACIN1 (UniProt Q9UKV3) -0.165
AARSD1 (UniProt Q9BTE6) 0.08
ABHD11 (UniProt Q8NFV4) 0.05
ACTN4 (UniProt K7EJH8) 0.001
ABHD16A (UniProt O95870) 0.031
ACYP2 (UniProt P14621) 0.108
ACADM isoform 2 (UniProt P11310) 0.019
AAK1 (UniProt Q2M2I8) 0.281
AARSD1 isoform 3 (UniProt Q9BTE6) 0.081
ACTBL2 (UniProt Q562R1) 0.158
ACTR1B (UniProt P42025) 0
AARS2 (UniProt Q5JTZ9) -0.019
A2ML1 (UniProt A8K2U0) 0.028
ACSL5 isoform 3 (UniProt Q9ULC5) 0.071
ACSS1 (UniProt Q9NUB1) 0.113
ABL1 isoform 2 (UniProt P00519) -0.167
ABRAXAS1 (UniProt Q6UWZ7) 0.015
ACAP2 (UniProt Q15057) 0.031

8 consecutive entries out of the list so far, quoted:
log2 fold change, inactive:
AAK1 (UniProt Q2M2I8) 0.281
AARSD1 isoform 3 (UniProt Q9BTE6) 0.081
ACTBL2 (UniProt Q562R1) 0.158
ACTR1B (UniProt P42025) 0
AARS2 (UniProt Q5JTZ9) -0.019
A2ML1 (UniProt A8K2U0) 0.028
ACSL5 isoform 3 (UniProt Q9ULC5) 0.071
ACSS1 (UniProt Q9NUB1) 0.113
